These are yes or no findings as the source states them, for the method shown. Binding seen in cells or lysates may run through a third protein. Some entries that bind do so weakly or less than the wild type. Tags and fused reporters may be left off the sequences shown.
Molecular target: hsp90 inherent to rabbit reticulocyte lysate (RRL) (rabbit) (UniProt P30947)
Experiment: co-elution from EGCG-conjugated Sepharose (pull-down) of His-XAP2 in RRL, SDS-PAGE, phosphoimaging and immunoblot

Amino acid sequences for entries named in this document (tags omitted). A change or cut given only in a name is not applied to a line headed by its entry.
UniProt P30947: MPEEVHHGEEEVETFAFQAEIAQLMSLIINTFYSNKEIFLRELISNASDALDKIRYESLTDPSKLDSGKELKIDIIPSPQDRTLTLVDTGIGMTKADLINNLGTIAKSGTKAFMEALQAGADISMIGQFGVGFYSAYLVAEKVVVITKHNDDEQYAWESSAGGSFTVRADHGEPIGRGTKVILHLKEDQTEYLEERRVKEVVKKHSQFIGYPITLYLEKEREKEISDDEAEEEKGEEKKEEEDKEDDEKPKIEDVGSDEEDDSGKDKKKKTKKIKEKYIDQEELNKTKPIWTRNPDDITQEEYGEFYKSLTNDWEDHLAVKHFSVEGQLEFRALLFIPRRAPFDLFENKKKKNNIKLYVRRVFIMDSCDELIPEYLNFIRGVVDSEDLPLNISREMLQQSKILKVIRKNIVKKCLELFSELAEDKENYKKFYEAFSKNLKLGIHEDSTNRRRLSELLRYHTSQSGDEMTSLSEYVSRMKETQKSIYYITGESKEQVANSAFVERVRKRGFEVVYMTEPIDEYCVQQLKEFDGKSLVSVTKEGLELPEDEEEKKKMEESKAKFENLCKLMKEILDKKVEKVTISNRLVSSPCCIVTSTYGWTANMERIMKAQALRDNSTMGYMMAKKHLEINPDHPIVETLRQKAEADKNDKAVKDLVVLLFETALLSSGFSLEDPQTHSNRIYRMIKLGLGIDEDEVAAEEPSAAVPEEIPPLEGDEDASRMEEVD

B1: mouse histidine-tagged XAP2 (construct pET-AIP), 35S-labeled, translated in vitro in rabbit reticulocyte lysate and purified by cobalt (TALON) affinity … (protein, UniProt O08915 1-330, looked up, not shown: small tags and cut ends)
chain: MADLIARLREDGIQKRVIQEGRGELPDFQDGTKATFHFRTLHSDNEGSVIDDSRTRGKPMELIVGKKFKLPVWETIVCTMREGEIAQFLCDIKHVVLYPLVAKSLRNIAEGKDPLEGQRHCCGIAQMHEHSSLGHADLDALQQNPQPLIFHIEMLKVESPGTYQQDPWAMTDEEKAKAVPVIHQEGNRLYREGQVKEAAAKYYDAIACLKNLQMKEQPGSPDWIQLDLQITPLLLNYCQCKLVAQEYYEVLDHCSSILNKYDDNVKAYFKRGKAHAAVWNAQEAQADFAKVLELDPALAPVVSRELRALETRIRQKDEEDKARFRGIFSH
modifications: 35S-methionine label
For B1, which binding is on record?
Its binding is “binds”.
